Data taken from the supplement of paper PMC6411743.
± gives the standard deviation of the averaged measurements. This is a selection; strong and weak results do not stand in their true shares. Small differences around the control level are noise.

Protein sequences, listed by entry. Tags and fused reporters are not part of them. Lines headed by an entry give the natural chain unless they say otherwise; changes in a name come on top.
UniProt Q93073: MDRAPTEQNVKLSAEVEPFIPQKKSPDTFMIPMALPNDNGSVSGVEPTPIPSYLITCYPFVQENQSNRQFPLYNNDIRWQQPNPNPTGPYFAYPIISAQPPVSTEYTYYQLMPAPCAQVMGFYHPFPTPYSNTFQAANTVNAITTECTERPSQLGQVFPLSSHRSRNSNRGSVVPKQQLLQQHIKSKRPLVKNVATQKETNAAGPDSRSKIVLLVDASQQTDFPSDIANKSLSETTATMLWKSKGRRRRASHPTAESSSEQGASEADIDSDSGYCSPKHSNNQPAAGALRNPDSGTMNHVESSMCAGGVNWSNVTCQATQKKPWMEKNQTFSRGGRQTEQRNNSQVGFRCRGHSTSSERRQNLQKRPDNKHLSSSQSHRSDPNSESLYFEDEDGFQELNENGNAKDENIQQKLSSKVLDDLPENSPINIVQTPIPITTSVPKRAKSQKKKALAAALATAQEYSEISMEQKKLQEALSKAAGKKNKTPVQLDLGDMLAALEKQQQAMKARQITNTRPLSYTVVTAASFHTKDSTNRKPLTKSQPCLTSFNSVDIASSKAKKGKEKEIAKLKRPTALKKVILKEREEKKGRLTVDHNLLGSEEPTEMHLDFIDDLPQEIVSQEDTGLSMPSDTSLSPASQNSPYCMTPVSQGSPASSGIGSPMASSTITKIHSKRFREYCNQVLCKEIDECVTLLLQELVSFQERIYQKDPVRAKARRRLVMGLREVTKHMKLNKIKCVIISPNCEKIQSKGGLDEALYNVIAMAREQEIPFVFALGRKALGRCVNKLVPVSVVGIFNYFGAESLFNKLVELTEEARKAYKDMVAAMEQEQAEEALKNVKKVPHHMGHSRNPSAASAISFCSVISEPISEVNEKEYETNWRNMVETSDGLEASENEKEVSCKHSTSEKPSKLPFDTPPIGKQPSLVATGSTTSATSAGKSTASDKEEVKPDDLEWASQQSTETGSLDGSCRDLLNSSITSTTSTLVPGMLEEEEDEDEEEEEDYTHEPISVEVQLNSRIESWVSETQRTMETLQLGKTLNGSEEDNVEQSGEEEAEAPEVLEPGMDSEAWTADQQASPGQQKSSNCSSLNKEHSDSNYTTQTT
UniProt Q96PU5: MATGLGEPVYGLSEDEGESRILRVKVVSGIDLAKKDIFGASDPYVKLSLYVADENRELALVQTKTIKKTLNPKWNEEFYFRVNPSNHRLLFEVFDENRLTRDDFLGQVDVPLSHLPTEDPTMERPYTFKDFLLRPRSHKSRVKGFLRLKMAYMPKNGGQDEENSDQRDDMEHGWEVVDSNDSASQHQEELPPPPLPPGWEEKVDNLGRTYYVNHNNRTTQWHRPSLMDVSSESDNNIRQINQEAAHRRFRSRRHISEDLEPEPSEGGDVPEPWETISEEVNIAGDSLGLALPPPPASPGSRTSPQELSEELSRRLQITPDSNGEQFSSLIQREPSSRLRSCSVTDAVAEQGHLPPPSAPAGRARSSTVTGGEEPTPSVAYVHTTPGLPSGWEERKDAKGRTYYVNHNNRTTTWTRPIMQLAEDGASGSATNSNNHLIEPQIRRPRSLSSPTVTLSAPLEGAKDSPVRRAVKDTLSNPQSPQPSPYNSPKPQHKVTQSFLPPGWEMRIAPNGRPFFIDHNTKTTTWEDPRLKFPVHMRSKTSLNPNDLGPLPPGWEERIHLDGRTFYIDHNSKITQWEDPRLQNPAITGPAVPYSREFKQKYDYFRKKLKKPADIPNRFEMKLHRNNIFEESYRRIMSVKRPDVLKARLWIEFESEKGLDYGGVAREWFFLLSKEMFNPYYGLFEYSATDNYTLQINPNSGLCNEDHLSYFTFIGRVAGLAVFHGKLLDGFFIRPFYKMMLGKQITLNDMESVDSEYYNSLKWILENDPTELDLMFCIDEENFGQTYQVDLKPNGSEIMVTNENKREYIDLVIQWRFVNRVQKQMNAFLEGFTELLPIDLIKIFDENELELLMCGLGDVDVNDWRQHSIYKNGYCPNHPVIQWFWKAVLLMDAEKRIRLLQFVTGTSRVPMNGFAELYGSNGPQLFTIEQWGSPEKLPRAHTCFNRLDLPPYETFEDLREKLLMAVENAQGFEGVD
UniProt Q96QR8: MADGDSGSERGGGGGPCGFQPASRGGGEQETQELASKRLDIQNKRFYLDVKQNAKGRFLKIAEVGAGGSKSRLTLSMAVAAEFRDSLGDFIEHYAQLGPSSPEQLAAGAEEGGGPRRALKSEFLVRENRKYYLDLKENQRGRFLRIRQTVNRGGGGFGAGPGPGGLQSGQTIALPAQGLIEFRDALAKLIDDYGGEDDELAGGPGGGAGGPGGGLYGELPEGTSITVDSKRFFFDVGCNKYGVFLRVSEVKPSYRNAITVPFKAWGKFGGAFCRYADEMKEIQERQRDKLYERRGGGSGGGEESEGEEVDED
UniProt Q96E14: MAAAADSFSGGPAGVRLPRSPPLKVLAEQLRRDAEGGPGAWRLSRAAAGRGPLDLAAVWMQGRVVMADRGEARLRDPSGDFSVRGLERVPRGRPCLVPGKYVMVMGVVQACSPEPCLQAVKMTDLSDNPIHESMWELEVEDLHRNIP
UniProt Q96E11: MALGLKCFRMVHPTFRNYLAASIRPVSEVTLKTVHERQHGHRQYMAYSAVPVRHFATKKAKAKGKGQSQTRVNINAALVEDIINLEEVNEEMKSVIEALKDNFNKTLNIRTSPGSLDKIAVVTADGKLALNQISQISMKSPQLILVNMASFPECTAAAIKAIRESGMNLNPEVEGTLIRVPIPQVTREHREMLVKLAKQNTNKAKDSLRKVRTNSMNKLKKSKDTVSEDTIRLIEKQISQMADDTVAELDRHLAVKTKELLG
UniProt Q96KC8: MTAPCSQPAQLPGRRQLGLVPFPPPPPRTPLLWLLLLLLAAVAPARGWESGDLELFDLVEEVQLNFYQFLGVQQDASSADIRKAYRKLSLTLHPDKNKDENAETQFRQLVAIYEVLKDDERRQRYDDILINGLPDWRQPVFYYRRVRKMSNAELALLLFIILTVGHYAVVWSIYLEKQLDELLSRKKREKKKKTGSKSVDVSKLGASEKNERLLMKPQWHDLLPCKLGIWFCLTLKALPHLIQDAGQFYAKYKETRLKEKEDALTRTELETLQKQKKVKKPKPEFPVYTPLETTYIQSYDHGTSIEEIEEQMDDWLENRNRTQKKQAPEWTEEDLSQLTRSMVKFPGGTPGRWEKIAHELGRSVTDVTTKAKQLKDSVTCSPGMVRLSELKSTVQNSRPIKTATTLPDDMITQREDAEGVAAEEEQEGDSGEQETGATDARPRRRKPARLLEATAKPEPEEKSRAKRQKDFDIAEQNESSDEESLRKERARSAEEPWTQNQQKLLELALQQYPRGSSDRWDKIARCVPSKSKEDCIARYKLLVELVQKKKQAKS
UniProt Q96D96: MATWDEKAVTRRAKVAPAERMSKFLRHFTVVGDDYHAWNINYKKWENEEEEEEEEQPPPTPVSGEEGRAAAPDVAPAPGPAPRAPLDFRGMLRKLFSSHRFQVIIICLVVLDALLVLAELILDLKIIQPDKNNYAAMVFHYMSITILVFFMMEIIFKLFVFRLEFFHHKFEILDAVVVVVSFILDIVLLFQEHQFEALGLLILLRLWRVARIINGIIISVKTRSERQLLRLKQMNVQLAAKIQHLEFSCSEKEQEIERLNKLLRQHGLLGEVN
UniProt Q93052: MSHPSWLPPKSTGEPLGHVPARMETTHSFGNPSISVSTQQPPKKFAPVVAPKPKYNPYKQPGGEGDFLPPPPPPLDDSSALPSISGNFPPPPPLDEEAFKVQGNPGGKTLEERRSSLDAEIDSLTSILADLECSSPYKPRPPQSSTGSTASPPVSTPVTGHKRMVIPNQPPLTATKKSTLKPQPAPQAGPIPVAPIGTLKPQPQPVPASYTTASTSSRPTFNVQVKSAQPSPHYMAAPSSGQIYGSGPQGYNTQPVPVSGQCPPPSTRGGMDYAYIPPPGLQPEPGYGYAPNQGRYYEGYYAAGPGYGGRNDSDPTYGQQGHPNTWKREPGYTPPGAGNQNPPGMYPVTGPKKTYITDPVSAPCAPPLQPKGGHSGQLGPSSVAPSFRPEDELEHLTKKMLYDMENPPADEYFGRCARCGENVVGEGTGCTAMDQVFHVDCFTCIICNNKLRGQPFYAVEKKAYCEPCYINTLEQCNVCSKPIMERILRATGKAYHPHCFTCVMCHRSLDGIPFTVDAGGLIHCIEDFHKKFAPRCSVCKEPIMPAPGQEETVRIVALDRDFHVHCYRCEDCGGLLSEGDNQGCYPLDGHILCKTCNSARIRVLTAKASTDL
UniProt Q96C90: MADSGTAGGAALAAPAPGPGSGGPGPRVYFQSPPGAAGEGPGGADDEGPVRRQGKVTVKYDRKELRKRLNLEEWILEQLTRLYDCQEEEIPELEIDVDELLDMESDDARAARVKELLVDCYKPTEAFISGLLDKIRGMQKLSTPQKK
UniProt Q96IZ0: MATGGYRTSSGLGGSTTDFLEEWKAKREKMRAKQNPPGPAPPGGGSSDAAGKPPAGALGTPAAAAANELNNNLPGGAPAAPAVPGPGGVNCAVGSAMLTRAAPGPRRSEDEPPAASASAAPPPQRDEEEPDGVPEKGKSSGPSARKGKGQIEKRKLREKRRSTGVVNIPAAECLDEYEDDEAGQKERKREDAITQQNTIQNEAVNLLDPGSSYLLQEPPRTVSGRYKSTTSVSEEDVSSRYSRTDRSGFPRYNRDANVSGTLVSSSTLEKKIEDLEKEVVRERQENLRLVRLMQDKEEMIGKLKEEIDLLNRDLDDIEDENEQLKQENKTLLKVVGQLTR
UniProt Q93050, whole entry: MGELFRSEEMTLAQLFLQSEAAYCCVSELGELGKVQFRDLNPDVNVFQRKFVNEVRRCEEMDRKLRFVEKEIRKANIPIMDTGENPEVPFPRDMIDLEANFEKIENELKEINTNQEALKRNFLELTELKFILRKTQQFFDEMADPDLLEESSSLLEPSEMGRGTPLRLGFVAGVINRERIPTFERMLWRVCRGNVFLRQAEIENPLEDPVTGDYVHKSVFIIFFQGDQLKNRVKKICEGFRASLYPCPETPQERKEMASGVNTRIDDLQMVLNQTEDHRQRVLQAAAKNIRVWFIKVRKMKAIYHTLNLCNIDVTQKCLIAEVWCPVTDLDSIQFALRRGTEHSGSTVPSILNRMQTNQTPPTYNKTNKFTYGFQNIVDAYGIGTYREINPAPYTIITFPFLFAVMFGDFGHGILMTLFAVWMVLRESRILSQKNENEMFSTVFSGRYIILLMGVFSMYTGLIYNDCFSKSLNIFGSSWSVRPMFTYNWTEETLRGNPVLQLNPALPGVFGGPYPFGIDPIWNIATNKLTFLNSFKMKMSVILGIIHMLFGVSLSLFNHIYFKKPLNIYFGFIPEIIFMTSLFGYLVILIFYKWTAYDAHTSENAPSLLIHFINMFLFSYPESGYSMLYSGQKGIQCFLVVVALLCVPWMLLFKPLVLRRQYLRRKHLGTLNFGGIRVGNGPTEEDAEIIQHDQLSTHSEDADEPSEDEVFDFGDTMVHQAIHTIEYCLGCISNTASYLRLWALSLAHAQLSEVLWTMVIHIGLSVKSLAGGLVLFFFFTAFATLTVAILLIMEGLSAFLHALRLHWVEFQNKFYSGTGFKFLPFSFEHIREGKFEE
UniProt Q96CP6, whole entry: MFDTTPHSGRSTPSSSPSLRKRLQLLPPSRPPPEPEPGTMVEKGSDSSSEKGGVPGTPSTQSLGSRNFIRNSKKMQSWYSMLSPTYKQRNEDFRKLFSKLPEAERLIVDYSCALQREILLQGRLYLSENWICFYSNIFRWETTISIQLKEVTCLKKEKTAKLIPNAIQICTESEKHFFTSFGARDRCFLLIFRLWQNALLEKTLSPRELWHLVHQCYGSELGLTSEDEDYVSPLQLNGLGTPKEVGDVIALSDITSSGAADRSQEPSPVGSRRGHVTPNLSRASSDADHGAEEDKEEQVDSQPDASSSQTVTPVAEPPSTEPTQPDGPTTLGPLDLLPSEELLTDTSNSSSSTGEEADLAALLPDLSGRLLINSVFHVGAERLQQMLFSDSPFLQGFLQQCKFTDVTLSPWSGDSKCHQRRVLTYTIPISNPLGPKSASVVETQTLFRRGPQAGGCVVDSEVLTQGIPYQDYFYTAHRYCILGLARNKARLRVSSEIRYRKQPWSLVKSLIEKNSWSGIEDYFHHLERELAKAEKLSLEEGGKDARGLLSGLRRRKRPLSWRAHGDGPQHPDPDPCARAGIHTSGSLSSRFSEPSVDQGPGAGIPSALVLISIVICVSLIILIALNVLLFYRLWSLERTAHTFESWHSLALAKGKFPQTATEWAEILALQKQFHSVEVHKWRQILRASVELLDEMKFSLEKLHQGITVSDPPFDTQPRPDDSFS
UniProt Q96FX7: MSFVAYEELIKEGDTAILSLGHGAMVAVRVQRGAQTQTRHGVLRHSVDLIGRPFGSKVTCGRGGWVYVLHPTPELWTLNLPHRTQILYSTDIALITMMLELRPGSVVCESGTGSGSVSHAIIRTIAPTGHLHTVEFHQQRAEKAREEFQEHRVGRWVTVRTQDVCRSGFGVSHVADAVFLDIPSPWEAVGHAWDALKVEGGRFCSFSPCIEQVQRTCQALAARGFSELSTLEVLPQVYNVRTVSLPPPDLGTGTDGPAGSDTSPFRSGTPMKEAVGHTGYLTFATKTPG

Each target was assayed with Nc1ncnc2c1ncn2[C@@H]1O[C@H](COP(=O)(O)OP(=O)(O)NP(=O)(O)O)[C@@H](O)[C@H]1O [adenylyl imidodiphosphate] (assay: NP40-soluble protein abundance relative to vehicle (solubility fold change) (ratio); higher = more soluble protein in presence of AMP-PNP). Conditions: concentration: 0.1mM.
Procedure, shortened: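 Each value is a fold change relative to the detergent-processed vehicle, calculated per replicate from vsn-normalised intensities. Jurkat crude lysate received eight concentrations (0.1 to 10 mM) for 10 min at room temperature and 3 min at 37 °C, then was solubilised in 0.8% NP40 with benzonase (60 min, 4 °C). The ultracentrifuged supernatant was TMT-labelled and run by LC-MS/MS in three independent experiments.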
In the case of UniProt Q969H8, the NP40-soluble protein abundance is reported as 0.993 ± 0.044. UniProt Q92973 and related entries was tested, and the NP40-soluble protein abundance was 1.06 ± 0.013. In the case of PWWP2A (UniProt Q96N64), the NP40-soluble protein abundance is reported as 1.02 ± 0.028. UniProt Q93073 and related entries gave an NP40-soluble protein abundance of 1.006 ± 0.0075. With IPO9 (UniProt Q96P70) the NP40-soluble protein abundance was 1.04 ± 0.027. Target UniProt Q96PU5 and related entries has an NP40-soluble protein abundance of 1.04 ± 0.0037. PURB (UniProt Q96QR8) was tested, and the NP40-soluble protein abundance was 1.02 ± 0.05. For EXOSC8 (UniProt Q96B26), the NP40-soluble protein abundance was 1.03 ± 0.045. With RMI2 (UniProt Q96E14) the NP40-soluble protein abundance was 0.99184 ± 0.00078. Target PEX13 (UniProt Q92968) has an NP40-soluble protein abundance of 1.01 ± 0.12. With UniProt Q96E11 and related entries the NP40-soluble protein abundance was 0.984 ± 0.026. PDXP (UniProt Q96GD0) gave an NP40-soluble protein abundance of 1.004 ± 0.0081.

Same assay, conditions: concentration: 0.5mM
DNAJC1 (UniProt Q96KC8) showed an NP40-soluble protein abundance of 0.967 ± 0.031. Work on UniProt Q96D96 and related entries yielded an NP40-soluble protein abundance of 1.03 ± 0.076. With UniProt Q96PE3 and related entries the NP40-soluble protein abundance was 0.97 ± 0.029. SENP8 (UniProt Q96LD8) showed an NP40-soluble protein abundance of 1 ± 0.053. For WDR92 (UniProt Q96MX6), the NP40-soluble protein abundance was 1.03 ± 0.023. With LPP (UniProt Q93052) the NP40-soluble protein abundance was 0.973 ± 0.047. PPP1R14B (UniProt Q96C90) was tested, and the NP40-soluble protein abundance was 1.03 ± 0.021. For UniProt Q96G28 and related entries, the NP40-soluble protein abundance was 1.01 ± 0.068. For UniProt Q96NC0, the NP40-soluble protein abundance was 1.06 ± 0.07. RPRD1A (UniProt Q96P16) showed an NP40-soluble protein abundance of 1.01 ± 0.054. Target PAWR (UniProt Q96IZ0) has an NP40-soluble protein abundance of 1.01 ± 0.053. Work on UniProt Q969T7 and related entries yielded an NP40-soluble protein abundance of 0.949 ± 0.058. UniProt Q93050 and related entries showed an NP40-soluble protein abundance of 0.953 ± 0.047. Target UniProt Q96CP6 and related entries has an NP40-soluble protein abundance of 1.037 ± 0.0057. With TRMT61A (UniProt Q96FX7) the NP40-soluble protein abundance was 1.02 ± 0.052.
